These results are taken from publication PMC12040169 (PLOS Biology, 2025).

In the test the test system is T1, CTL2-GFP (C. trachomatis L2/434/Bu, GFP-expressing).
T1 construct: L2/434/Bu, GFP-expressing
More on the design: species or system HeLa; Intracellular C. trachomatis growth in HeLa cells, bulk GFP fluorescence relative to DMSO. The note with it: bulk GFP, single well, 28.5 h, 10 µM, inhibitor.

Read-outs that look alike come from different tables or passages of the source. This is one part of the list.

As for `O=C(C1COc2ccccc2O1)N(Cc1cccnc1)c1nc2c(F)cccc2s1` (stereo not shown) [CBK294421], the “% of control remaining” value amounted to 140.46%.

Regarding `COc1ccc([C@@]23CC[C@@H](NC(=O)Nc4cc(C)ccc4F)C[C@@H]2N(C)CC3)cc1OC` [CBK036509T], the “% of control remaining” value was 100.243%.

Turning to `CSc1cccc(CN(C)C(=O)c2cc(C#N)c(=O)[nH]c2C)c1` [CBK306839], the “% of control remaining” value is on record as 114.077%.

With `CC(C)(C)C(=O)NC(c1nccs1)C1CCN(C(=O)C2CC2)CC1` (stereo not shown) [CBK284678], the “% of control remaining” value came to 124.697%.

On to `CCC(=O)N[C@H]1CC[C@@]2(Cc3ccc(OC)cc3)CCN(C)[C@H]2C1` [CBK024126], for which the “% of control remaining” value came to 133.628%.

As to `O=C(Nc1ccc(F)cc1)Nc1cccnc1Cl` [CBK058509], the “% of control remaining” value turned out to be 126.025%.

In the case of `COc1cccc(Oc2nccnc2-c2cnn(C)c2)c1` [CBK107071], the “% of control remaining” value is on record as 87.4025%.

Take `CN(C)C(=O)CN1C(=O)N2CCCN=C2c2ccc(Cl)cc21` [CBK284392]: the “% of control remaining” value stood at 67.4516%.

Consider `O=C(O)CC(C(=O)Nc1ccc(Cl)cc1)C1CCCO1` (stereo not shown) [CBK264583], for which the “% of control remaining” value is reported as 100%.

With `COc1cccc(-c2nnc(SCc3nc4ccccc4[nH]3)n2N)c1` [CBK267549], the “% of control remaining” value is given as 145.645%.

For the molecule `CCc1c(C)nc2ccccc2c1SCC(=O)O` [CBK153279], the “% of control remaining” value was 114.835%.

As for `O=C(CCC(=O)c1ccc2c(c1)Cc1ccccc1-2)Nc1ccc(C(=O)O)cc1` [CBK268673], the “% of control remaining” value turned out to be 114.314%.

As for `Cc1ccc(C(=O)Nc2ncn(CC(=O)N3CCCCCC3)n2)cc1` [CBK304569], the “% of control remaining” value is given as 89.6533%.

Consider `Cc1occc1-c1nn(C2CCNCC2)c(=O)o1` [CBK284757], for which the “% of control remaining” value was 112.952%.

Regarding `O=C(CCN1C(=O)c2ccccc2C1=O)N1CCOCCOCCN(C(=O)CCN2C(=O)c3ccccc3C2=O)CCOCCOCC1` [CBK260964], the “% of control remaining” value turned out to be 96.9991%.

Consider `O=C(Nc1ccc(N2CCNCC2)nc1)C1CCC1` [CBK004743T], for which the “% of control remaining” value is recorded as 182.434%.

Take `Cn1sc(=O)c2cc(S(=O)(=O)NC3CC3)ccc21` [CBK009163]: the “% of control remaining” value stood at 96.4621%.

Turning to `O=C(c1cc(F)c(F)cc1F)N1CCC2(CCN(Cc3nc4ccccc4[nH]3)C2)C1` (stereo not shown) [CBK132134], the “% of control remaining” value was determined as 102.792%.

For `COc1ccccc1OCCn1c(=N)n(CC(N)=O)c2ccccc21` [CBK268822C], the “% of control remaining” value was 133.387%.

`OCc1ccccc1-c1cn2ccnc2c(Nc2ccccc2)n1` [CBK037999]: the “% of control remaining” value amounted to 122.917%.

Consider `CCOc1ccc(-n2c(N)c(C(=O)NCc3ccco3)sc2=S)cc1` [CBK265578], for which the “% of control remaining” value is 119.96%.

Take `Cc1ccccc1NC(=O)NCCCN1CCN(C)CC1` [CBK267837]: the “% of control remaining” value worked out at 129.314%.

As to `Cc1nc(CCNC(=O)c2nn(-c3cccc(C(C)C)c3)cc2O)cs1` [CBK305438], the “% of control remaining” value is listed as 125.96%.

For the molecule `COc1ccc(S(=O)(=O)N2CCN(C(=O)c3cc(-c4cccnc4)nc4c(C)cc(C)cc34)CC2)cc1OC` [CBK267767], the “% of control remaining” value turned out to be 85.9313%.

As for `CCOC(=O)CCNC(=O)C1(c2ccccc2)CCCC1` [CBK149543], the “% of control remaining” value is on record as 127%.

`COc1ccc2c(c1)c(C(=O)NCCn1nc(C)cc1C)c(C)n2C` [CBK304615]: the “% of control remaining” value came out at 97.123%.

As for `O=C(O)c1ccc(CNCc2c(F)cccc2Cl)cc1` [CBK269496], the “% of control remaining” value (Bulk GFP fluorescence) was 125.5%.

For the molecule `CSCCN1CCC(Oc2cncc(OCC3COc4ccccc4O3)n2)C1` (stereo not shown) [CBK084381], the “% of control remaining” value is 101.064%.

In the case of `CCc1ccc(NC(=N)Nc2nc(CSc3ncccn3)cc(=O)[nH]2)cc1` [CBK268836], the “% of control remaining” value came out at 141.699%.

For the molecule `Cc1ccc(C(C)C)c(OCc2ccc(C(=O)O)o2)c1` [CBK078089], the “% of control remaining” value is given as 103.613%.

For the molecule `CN1CCN(C(=O)CCCN2C(=O)c3cccc4cccc(c34)C2=O)CC1` [CBK262383], the “% of control remaining” value turned out to be 100%.

As to `CC1(C)CC(=O)C(C(=S)Nc2ccccc2)=C(O)C1` [CBK288395], the “% of control remaining” value is reported as 146.007%.

Regarding `O=C(O)Cc1ccc(NC(=S)Nc2ccc([N+](=O)[O-])cc2)cc1` [CBK266959], the “% of control remaining” value amounted to 166.113%.

Consider `CN(Cc1ccccc1)C1CCN(Cc2ccccn2)CC1` [CBK264622G], for which the “% of control remaining” value is on record as 100%.

As to `O=S(=O)(c1ccc(Cl)c(Cl)c1)c1ccc2nccc(N3CCNCC3)c2c1` [CBK036497C], the “% of control remaining” value was determined as 112.021%.

Consider `CC1CCN(Cc2c(O)ccc3occ(C(=O)c4ccccc4)c23)CC1` [CBK111319], for which the “% of control remaining” value is reported as 121.517%.

Regarding `CN1CCC(N2CC[C@H](c3nnc(-c4cncn4C)o3)C2)CC1` [CBK289403], the “% of control remaining” value is 113.152%.

For `CCOC(=O)c1c(C)oc2ccc(O)c(CN3CCCCC3)c12` [CBK263838C], the “% of control remaining” value is 100%.

Consider `CN1CCN(Cc2c(C3CCCC3)[nH]c3ncccc23)CC1` [CBK285336], for which the “% of control remaining” value was found to be 118.938%.

With `CC(C)(N)CN(Cc1ccc(Cl)cc1)C(=O)Nc1ccccc1-c1ccccc1` [CBK004924], the “% of control remaining” value was 113.061%.

As to `Cc1nc2c(c(=O)[nH]1)CN(Cc1cc(F)ccc1F)CC2` [CBK283953], the “% of control remaining” value was 115.556%.

Take `Nc1ncnc(NCCc2ccccc2)n1` [CBK262701]: the “% of control remaining” value was 132.597%.

With `NC1CC(c2cc(NCCCc3nnc4ccccn34)ncn2)C1` (stereo not shown) [CBK307120], the “% of control remaining” value is given as 89.3497%.

Consider `CCc1nnc(CN2CCCC(c3cc(C(N)=O)[nH]n3)C2)o1` (stereo not shown) [CBK305213], for which the “% of control remaining” value is reported as 101.887%.

On to `FC(F)(F)Oc1ccc(-c2cncc(N3CCN(c4ccncc4)CC3)n2)cc1` [CBK059230C], for which the “% of control remaining” value came to 110.768%.

As for `C(=C\c1cccc(Nc2ccc(Oc3ccccc3)cc2)n1)/c1ccccc1` [CBK037614], the “% of control remaining” value stood at 111.927%.

In the case of `CCCn1ncnc1C(C)NC(=O)Nc1ccnn1CC(C)C` (stereo not shown) [CBK307545], the “% of control remaining” value is 92.5687%.

On to `c1ccc(Oc2ccccc2-c2cc(NCCc3c[nH]cn3)ncn2)cc1` [CBK037845], for which the “% of control remaining” value is reported as 99.7322%.

With `O=C(NC(c1ccc(Cl)cc1)c1cnccn1)C1CCN(C(=O)N2CCOCC2)CC1` (stereo not shown) [CBK059635], the “% of control remaining” value amounted to 165.321%.

On to `CC(=O)N[C@H]1CC[C@]2(C)CCC([C@H](C)C(=O)N(C)Cc3ccccc3)[C@H](O)[C@H]2[C@@H]1C` (stereo partly shown) [CBK289435], for which the “% of control remaining” value worked out at 104.987%.

As for `O=C(Nc1ccccc1C(F)(F)F)NC1CC2CCCC(C1)N2C1CC1` (stereo not shown) [CBK143578], the “% of control remaining” value is given as 131.508%.

In the case of `CCn1c2ccccc2c2cc(NC(=O)CC(C)CC(=O)O)ccc21` (stereo not shown) [CBK300031], the “% of control remaining” value amounted to 121.002%.

For `CC(C)Cn1cnc2c(c1=N)C(c1ccccc1)c1ccc(O)cc1O2` (stereo not shown) [CBK287864], the “% of control remaining” value is listed as 124.719%.

In the case of `Cc1cc(NC(=O)c2cccc(C#N)c2)c2ccccc2n1` [CBK116267], the “% of control remaining” value is on record as 134.506%.

For the molecule `COCCCNC(=O)Cn1cnc2sc(C)cc2c1=O` [CBK071899], the “% of control remaining” value is reported as 107.477%.

In the case of `O=C(c1cc[nH]c1)N1CCN(C(=O)c2ccco2)CC1` [CBK144467], the “% of control remaining” value is given as 108.626%.

With `CCN1C(=O)COC[C@@H]1[C@H](O)c1ccc(NC(=O)C2CCC2)cc1` [CBK289686], the “% of control remaining” value came to 141.821%.

For the molecule `N#Cc1ccc(Cn2cnc(NC(=O)c3cnccn3)n2)cc1` [CBK305233], the “% of control remaining” value was determined as 111.541%.

Regarding `CC(C)(C)c1ccc(NC(=O)n2ccc3c(N4CCNCC4)cccc32)cc1` [CBK003736C], the “% of control remaining” value amounted to 41.1638%.

Turning to `Cc1cc2cn([C@H]3C[C@@H](O)[C@@H](CO)O3)c(=O)nc2o1` [CBK201287], the “% of control remaining” value is listed as 128.784%.

For the molecule `O=C(NC/C=C/c1cn(C2OC(CO)C(O)C2O)c(=O)[nH]c1=O)C(F)(F)F` (stereo not shown) [CBK201298], the “% of control remaining” value was found to be 79.1353%.

Take `O=C(NCc1cccc(OCC2CCCO2)c1)C1C2CCCCC21` (stereo not shown) [CBK281517]: the “% of control remaining” value is reported as 141.252%.

`O=C(O)C1Nc2c(Cl)cc(Cl)cc2C2C=CCC12` (stereo not shown) [CBK077855]: the “% of control remaining” value is listed as 134.838%.

Regarding `C/C(=N/OCO/N=C(\C)c1cccc([N+](=O)[O-])c1)c1cccc([N+](=O)[O-])c1` [CBK260872], the “% of control remaining” value amounted to 121.895%.

With `O=C1N[C@@H]2CCN(Cc3cnccn3)C[C@H]2C/C=C/CC2(CCOCC2)C(=O)N[C@H]1Cc1ccccc1` [CBK292189], the “% of control remaining” value was determined as 102.766%.

For the molecule `O=C(CSCc1ccccc1)Nc1ccc(S(=O)(=O)N2CCOCC2)cc1` [CBK087885], the “% of control remaining” value came to 100%.

`COc1ccc(Cl)cc1NC(=O)COc1cccc2ccccc12` [CBK262995]: the “% of control remaining” value stood at 141.541%.

In the case of `COc1ccc(Cl)cc1NC(=O)CN(c1cc([N+](=O)[O-])ccc1C)S(C)(=O)=O` [CBK266394], the “% of control remaining” value turned out to be 131.434%.

Take `O=C(c1ccc2nccnc2c1)N1CCCc2ccccc21` [CBK200257]: the “% of control remaining” value was 59.2805%.

As for `COc1ccc(CNC(=O)Cn2nc3c(SCc4ccc(Cl)cc4)nccn3c2=O)cc1` [CBK300541], the “% of control remaining” value is 143.149%.

`Cc1cc2nc(-c3ccc(C(=O)O)cc3)[nH]c2cc1C` [CBK096054]: the “% of control remaining” value came out at 159.448%.

As for `COc1ccccc1N1CCN(C(=O)NCCCN2CCCC2=O)CC1` [CBK155612], the “% of control remaining” value was 114.329%.

In the case of `C[C@H](Nc1nccnc1-c1cccc(O)c1)c1ccccc1` [CBK037180], the “% of control remaining” value is given as 88.5045%.

With `Cc1nnc(S)n(Cc2ccc(F)cc2)c1=O` [CBK288502], the “% of control remaining” value is reported as 111.702%.

Take `Cc1ccc(NC(=O)CSCc2nc3ccccc3[nH]2)cc1` [CBK267299]: the “% of control remaining” value amounted to 117.796%.

For the molecule `CC(=O)NCCSc1ccc(C(F)(F)F)cn1` [CBK105298], the “% of control remaining” value worked out at 104.709%.

On to `O=C1c2ccc(-c3ccc4c(c3)C(=O)N(Cc3ccco3)C4=O)cc2C(=O)N1Cc1ccco1` [CBK266578], for which the “% of control remaining” value is 146.857%.

As for `O=C(O)c1ccccc1C(=O)c1ccc(Oc2ncc(C(F)(F)F)cc2Cl)cc1` [CBK161648], the “% of control remaining” value is 115.245%.

As to `Cc1noc(C)c1C(=O)N1CCC2(CC1)CC(=O)c1cc(Br)ccc1O2` [CBK156508], the “% of control remaining” value worked out at 100.205%.
